Results published in US20260151516A1, “NEW PET TRACER FOR IMAGING OF THE FUNCTIONAL HEPATIC RESERVE” (Medizinische Universität Innsbruck, priority 2022, published 2026).
Some compounds share one wording; it may come from a single statement.

Test: PET/MR imaging
Type: in vivo
Settings: healthy C57Bl/6 male mice; for PET/MR imaging result (liver signal and background): dynamic 60 min PET after injection

Compound	PET/MR imaging result (liver signal and background)	PET/MR activity accumulation in the bone compared with [^68Ga]Ga-NODAGA-TriGalactan (dynamic 60 min PET)
O=C(O)CN1CCN(CC(=O)O)CCN([C@H](CCC(=O)NCCCC(=O)NC(COCc2cn(CCOCCOCCO[C@@H]3O[C@H](CO)[C@H](O)[C@H](O)[C@H]3O)nn2)(COCc2cn(CCOCCOCCO[C@@H]3O[C@H](CO)[C@H](O)[C@H](O)[C@H]3O)nn2)COCc2cn(CCOCCOCCO[C@@H]3O[C@H](CO)[C@H](O)[C@H](O)[C@H]3O)nn2)C(=O)O)CC1 [[^68Ga]Ga-NODAGA-TriGalactan, metal not drawn]	intensive liver signal and low background activity in the rest of the body	–
CC(=O)N[C@H]1[C@H](OCCOCCOCCn2cc(CNC(=O)CCP(=O)([O-])CN3CCN(CP(=O)([O-])CCC(=O)NCc4cn(CCOCCOCCO[C@@H]5O[C@H](CO)[C@H](O)[C@H](O)[C@H]5NC(C)=O)nn4)CCN(CP(=O)([O-])CCC(=O)NCc4cn(CCOCCOCCO[C@@H]5O[C@H](CO)[C@H](O)[C@H](O)[C@H]5NC(C)=O)nn4)CC3)nn2)O[C@H](CO)[C@H](O)[C@@H]1O.[68Ga+3] [[^68Ga]Ga-TRAP-GalNAc]	intensive liver signal and low background activity in the rest of the body	–
O=C(O)CN1CCN(CC(=O)O)CCN(CC(=O)NCCCC(=O)NC(COCc2cn(CCOCCOCCO[C@@H]3O[C@H](CO)[C@H](O)[C@H](O)[C@H]3O)nn2)(COCc2cn(CCOCCOCCO[C@@H]3O[C@H](CO)[C@H](O)[C@H](O)[C@H]3O)nn2)COCc2cn(CCOCCOCCO[C@@H]3O[C@H](CO)[C@H](O)[C@H](O)[C@H]3O)nn2)CC1 [[^18F]AlF-NOTA-TriGalactan]	intensive liver signal and low background activity in the rest of the body	some increased activity accumulation in the bone
